Results are given in words; binding and its absence hold for the method and conditions named. Some results given as binding are weak or reduced against the parent protein; the word gives no strength.
Target: T1, rhodamine-conjugated CGY peptide (Rh-CGY)
T1 sequence (peptide, Rhodamine B conjugated at the N-terminal): CGYRPVHNIRGHWAPG
Experiment: Co-assembly of 10 uM Rh-CGY with 5 uM FAM-GYR; NTA, electron microscopy; no disulfide bond (Western blot)

- binding: binds
Binder: GYRPVHNIRGHWAPG (FAM label (position not stated; by the name at the N-terminus)) [FAM-GYR peptide]

From patent US20200069813A1
